Results deposited as PubChem BioAssay AID1259285 (Sanger Institute, 2017).
Test: 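Kinase knock-downs that reduce colorectal cancer cell viability or act with drugs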 (primary screen). Cells: human HCC56 colorectal cancer cells. Knock-down reagent: siRNA pool against human genes. Conditions: DMSO vehicle, or anchor drug BYL719 at 1 µM, cetuximab at 5 µg/ml, or trametinib at 10 nM. Detection: 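Viability as a ratio to non-targeting pool wells, averaged over replicates and turned into a robust z-score; synergy scores with BYL719, cetuximab or trametinib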. Scale: viability robust z-score, no drug: higher = more viable cells, weaker knock-down effect. Call rule: 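Essential when the drug-free viability robust z-score falls below -3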. Calls: active = essential without drug; inactive = no change without drug.
The deposit covers 794 reagents; shown is a part drawn at random. 20 of all reagents (2.5%) count as active. 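Calls rest on the drug-free arm alone and ignore synergy scores; viability ratios seem to be capped at 1.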 Further read-outs or replicates are left out here. Reagent sequences are not shown. The record does not give: the amount of reagent, the time to read-out.

gene	viability robust z-score, no drug	call
PFKFB1	-1.65	inactive
UCKL1	-2.01	inactive
PIKFYVE	0.458	inactive
PIK3C2G	-3.29	active
MAP3K1	0.458	inactive
MAPK1	-2.08	inactive
AK3	0.458	inactive
DLG3	0.458	inactive
MAST2	0.458	inactive
DAPK1	-0.568	inactive
CAMK1G	0.458	inactive
AK2	0.458	inactive
RIPK1	0.458	inactive
ACVR1B	0.458	inactive
SLK	0.458	inactive
TAF1L	0.458	inactive
NRK	0.171	inactive
ARAF	0.458	inactive
CLSPN	-2.8	inactive
GK2	-1.01	inactive
MAP2K2	-0.834	inactive
STRADB	0.458	inactive
RPS6KA4	0.458	inactive
CDK5R2	0.458	inactive
CHKA	-2.15	inactive
MAP4K3	0.289	inactive
SIK1	0.458	inactive
COASY	-0.703	inactive
CERT1	0.458	inactive
CSK	0.458	inactive
FCSK	0.458	inactive
HUNK	-2.51	inactive
WNK3	0.458	inactive
TESK2	0.458	inactive
STK17A	-1.56	inactive
MAP2K5	0.458	inactive
CTCF	0.458	inactive
PTK7	-0.755	inactive
INSRR	-0.267	inactive
MYLK2	-0.187	inactive
RPS6KB1	-1.47	inactive
PLK2	0.458	inactive
HK2	0.458	inactive
CDC42BPG	0.113	inactive
CERK	0.458	inactive
LATS1	0.458	inactive
EPHA7	0.405	inactive
VRK2	0.0361	inactive
TBCK	0.458	inactive
PAK3	0.458	inactive

Entries above whose gene name starts with D or d:
gene	viability robust z-score, no drug	call
DLG3	0.458	inactive
DAPK1	-0.568	inactive
